Our source for the binding values is PMC9984184.

Protein sequences, listed by entry. Tags and fused reporters are not part of them.
UniProt P18848: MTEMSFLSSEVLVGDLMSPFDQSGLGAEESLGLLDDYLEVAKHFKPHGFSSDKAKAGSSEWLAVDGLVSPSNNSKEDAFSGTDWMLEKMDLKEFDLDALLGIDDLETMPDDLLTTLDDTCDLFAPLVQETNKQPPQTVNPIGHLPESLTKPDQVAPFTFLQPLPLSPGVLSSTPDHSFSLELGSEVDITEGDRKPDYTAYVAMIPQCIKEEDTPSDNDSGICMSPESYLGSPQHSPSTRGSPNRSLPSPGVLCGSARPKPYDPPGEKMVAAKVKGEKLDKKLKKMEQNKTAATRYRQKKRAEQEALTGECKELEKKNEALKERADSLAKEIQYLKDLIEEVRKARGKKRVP

Results are given in words; binding and its absence hold for the method and conditions named. In cells and extracts the contact can be indirect. Some results given as binding are weak or reduced against the parent protein; the word gives no strength.

The target of assay [1] is T1, endogenous ATF4 of mouse brain (mouse (endogenous in brain)) (UniProt Q06507).
T1 sequence: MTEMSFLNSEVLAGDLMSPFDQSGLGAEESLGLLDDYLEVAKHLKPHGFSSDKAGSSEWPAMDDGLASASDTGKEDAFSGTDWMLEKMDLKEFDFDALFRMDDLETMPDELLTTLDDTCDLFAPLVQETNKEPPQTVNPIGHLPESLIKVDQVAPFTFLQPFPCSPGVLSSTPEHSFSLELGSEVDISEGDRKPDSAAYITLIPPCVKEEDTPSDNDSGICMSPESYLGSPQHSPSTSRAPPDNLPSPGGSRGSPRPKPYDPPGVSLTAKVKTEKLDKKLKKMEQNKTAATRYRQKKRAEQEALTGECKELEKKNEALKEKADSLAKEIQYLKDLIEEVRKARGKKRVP
The experiment in a line: proximity ligation; endogenous proteins in 12-μm coronal brain sections (dentate gyrus) of 10-week-old 5xFAD and wild-type mice; anti-CREB3L2 and anti-ATF4 directly conjugated with PLA PLUS and MINUS oligonucleotides, Duolink In situ Far-red.

In assay [2] the target is T2, endogenous CREB3L2 of rat neurons (rat (endogenous in cortical and hippocampal neurons)) (UniProt Q6QDP7).
T2 sequence: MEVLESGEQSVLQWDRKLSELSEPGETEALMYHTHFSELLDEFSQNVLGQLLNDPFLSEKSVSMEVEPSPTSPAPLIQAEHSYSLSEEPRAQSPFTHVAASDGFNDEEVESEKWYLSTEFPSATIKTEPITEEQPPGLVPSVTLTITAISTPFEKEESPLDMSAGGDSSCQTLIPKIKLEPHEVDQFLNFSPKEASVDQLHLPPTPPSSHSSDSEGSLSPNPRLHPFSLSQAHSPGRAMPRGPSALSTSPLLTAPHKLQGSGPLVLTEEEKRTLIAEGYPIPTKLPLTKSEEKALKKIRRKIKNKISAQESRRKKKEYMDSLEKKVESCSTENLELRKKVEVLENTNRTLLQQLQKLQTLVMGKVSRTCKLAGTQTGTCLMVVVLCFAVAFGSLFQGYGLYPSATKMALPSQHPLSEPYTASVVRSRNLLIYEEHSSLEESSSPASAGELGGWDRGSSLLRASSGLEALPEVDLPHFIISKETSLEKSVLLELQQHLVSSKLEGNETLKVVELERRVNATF
The experiment in a line: co-IP; endogenous proteins in neuritic (axon-dendritic) extracts of mixed cortical and hippocampal neurons grown on transwell inserts, treated with Aβ42 or vehicle; ATF4 blotted in the CREB3L2 precipitate.

The target of assay [3] is T2, endogenous CREB3L2 of rat neurons (rat (endogenous in cortical and hippocampal neurons)). The experiment in a line: proximity ligation; endogenous proteins in fixed rat hippocampal neurons (microfluidic chambers or dissociated cultures); anti-CREB3L2 and anti-ATF4 primary antibodies, Duolink In situ Red; Aβ42 or vehicle for 12 or 18 hours; also ciliobrevin A, emetine, α-synuclein fibrils.

Assay [4] concerns the target endogenous ATF4 of human brain (human (endogenous in dorsolateral prefrontal cortex)) (UniProt P18848). The experiment in a line: proximity ligation; endogenous proteins in paraffin sections of human dorsolateral prefrontal cortex (AD and controls); directly conjugated anti-CREB3L2 and anti-ATF4 probes, Duolink In Situ Brightfield; neurofilament costain.
Assay [5] shares this target. The experiment in a line: co-IP; endogenous proteins in lysates of frozen human dorsolateral prefrontal cortex (controls and late-onset AD); anti-ATF4 cross-linked to protein A magnetic beads, overnight at 4°C; 20 mM tris-Cl pH 8, 137 mM NaCl, 1% NP-40, 2 mM EDTA; CREB3L2 blotted in the eluate.

B1: endogenous CREB3L2 of mouse brain (protein, UniProt Q8BH52 1-521)
chain: MEVLESGEQSVLQWDRKLSELSEPGETEALMYHTHFSELLDEFSQNVLGQLLSDPFLSEKSESMEVEPSPTSPAPLIQAEHSYSLSEEPRTQSPFTHAATSDSFNDEEVESEKWYLSTEFPSATIKTEPITEEQPPGLVPSVTLTITAISTPFEKEESPLDMNAGGDSSCQTLIPKIKLEPHEVDQFLNFSPKEASVDQLHLPPTPPSSHSSDSEGSLSPNPRLHPFSLSQAHSPARAMPRGPSALSTSPLLTAPHKLQGSGPLVLTEEEKRTLVAEGYPIPTKLPLTKSEEKALKKIRRKIKNKISAQESRRKKKEYMDSLEKKVESCSTENLELRKKVEVLENTNRTLLQQLQKLQTLVMGKVSRTCKLAGTQTGTCLMVVVLCFAVAFGSFFQGYGPYPSATKMALPSQHPLSEPYTASVVRSRNLLIYEEHAPLEESSSPASAGELGGWDRGSSLLRASSGLEALPEVDLPHFLISNETSLEKSVLLELQQHLVSSKLEGNETLKVVELERRVNATF
As to B1, the binding entry in assay [1] is recorded as “binds”.

B2: endogenous ATF4 of rat neurons (protein, UniProt Q9ES19 1-347)
chain: MTEMSFLNSEVLAGDLMSPFDQSGLGAEESLGLLDDYLEVAKHFKPHGFSSDKAGSSEWLAMDGLVSASDTGKEDAFSGTDWMLEKMDLKEFDFDALFRMDDLETMPDELLATLDDTCDLFAPLVQETNKEPPQTVNPIGHLPESVIKVDQAAPFTFLQPLPCSPGFLSSTPDHSFSLELGSEVDISEGDRKPDSAAYITLTPQCVKEEDTPSDSDSGICMSPESYLGSPQHSPSTSRAPPDSLPSPGVPRGSRPKPYDPPGVSVTAKVKTEKLDKKLKKMEQNKTAATRYRQKKRAEQEALTGECKELEKKNEALKEKADSLAKEIQYLKDLIEEVRKARGKKRVP
Turning to B2, the binding result in assay [2] and in assay [3] was “binds” in each case.

B3: endogenous CREB3L2 of human brain (protein, UniProt Q70SY1 1-520)
chain: MEVLESGEQGVLQWDRKLSELSEPGDGEALMYHTHFSELLDEFSQNVLGQLLNDPFLSEKSVSMEVEPSPTSPAPLIQAEHSYSLCEEPRAQSPFTHITTSDSFNDDEVESEKWYLSTDFPSTSIKTEPVTDEPPPGLVPSVTLTITAISTPLEKEEPPLEMNTGVDSSCQTIIPKIKLEPHEVDQFLNFSPKEAPVDHLHLPPTPPSSHGSDSEGSLSPNPRLHPFSLPQTHSPSRAAPRAPSALSSSPLLTAPHKLQGSGPLVLTEEEKRTLIAEGYPIPTKLPLSKSEEKALKKIRRKIKNKISAQESRRKKKEYMDSLEKKVESCSTENLELRKKVEVLENTNRTLLQQLQKLQTLVMGKVSRTCKLAGTQTGTCLMVVVLCFAVAFGSFFQGYGPYPSATKMALPSQHSLQEPYTASVVRSRNLLIYEEHSPPEESSSPGSAGELGGWDRGSSLLRVSGLESRPDVDLPHFIISNETSLEKSVLLELQQHLVSAKLEGNETLKVVELDRRVNTTF
Regarding B3, the binding entry in assay [4] and in assay [5] was “binds” throughout.
